Measurements from PubChem BioAssay AID434947 (Broad Institute, 2010).
In all, about 2,200 compounds went through this assay and about 15 (0.7%) were called active.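 How the source made its calls: active means fitted half-maximal concentration for loss of luminescence signal no more than a set limit of log units above the top tested concentration; inconclusive means flat fit with 30 to 70% signal loss, or invalid fit; inactive means half-maximal concentration above that set limit.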 The list shows a part of the results.

Assay: inhibitors of ADP-Glo detection reagents, dose response, artefact control for GSK3beta inhibitor project, biochemical, luminescence, cell-free, homogeneous (AID 434947);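 further: kinase-free counter screen of ADP-Glo detection reagents for GSK3beta hits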
Settings: 5 uM ADP

EC50, inactive:
CC(C)N1CCc2c(sc(NC(=O)CCc3ccccc3)c2C(N)=O)C1 > 30 µM, Nc1nnc(CC(=O)N/N=C/c2ccccc2OCc2ccc(F)cc2)s1 > 30 µM, CCOC(=O)c1cnc2ccccc2c1Nc1ccc(C(=O)O)cc1 > 30 µM, Cc1ccccc1CSc1nnc(-c2ccncc2)o1 > 30 µM, O=C(O)CCn1cc(/C=N/O)c(-c2cccc([N+](=O)[O-])c2)n1 > 30 µM, Clc1ccc(/C=N/Nc2ncnc3nc[nH]c23)cc1 > 30 µM, CC(=O)N(\C=C/C=C/C=C1\Sc2ccccc2C1=O)c1ccccc1 > 30 µM, COc1ccc(C(=O)c2coc3ccc(O)c(CN4CCCC4)c23)cc1 > 30 µM, Nc1nonc1-n1nnc(C(=O)N/N=C\c2ccncc2)c1CN1CCCCC1 > 30 µM, CC1(C)CC(=O)C(C2(O)C(=O)Nc3ccccc32)CO1 (centres undefined) > 30 µM, CSc1nc(N)c2c3c(sc2n1)CN(C)CC3 > 30 µM, O=[N+]([O-])c1ccc2ccn(C3OCC(O)C(O)C3O)c2c1 (centres undefined) > 30 µM, O=C(OCCCCOC(=O)c1ccccc1)c1ccccc1 > 30 µM, Cc1cc(C)cc(NC(=O)NCC2CCN(Cc3cc(C)ccc3C)CC2)c1 > 30 µM, O=C(Nc1ccccc1C(=O)O)c1ncn[nH]1 > 30 µM, CN(C)CCCNc1nc(N)c([N+](=O)[O-])c(NC2CCCCC2)n1 > 30 µM, CCNc1nc(N)c(C(=O)C23CC4CC(CC(C4)C2)C3)s1 > 30 µM, COc1cccc2c1cc1c(=O)n(CC(=O)NCCCN3CCN(C)CC3)nc(C)n12 > 30 µM, O=C1Nc2cc(C(=O)NCC3CCCO3)ccc2S/C1=C/c1ccccc1F (centres undefined) > 30 µM, O=C(Nc1cccc2c1C(=O)NC2=O)c1ccc(N2C(=O)CCC2=O)cc1 > 30 µM, Cc1cccc(-n2c(=O)c3c4c(sc3n3c(=S)[nH]nc23)CCC4)c1 > 30 µM, O=C(NCC(c1ccco1)N1CCOCC1)c1cccc(Cl)c1 (centres undefined) > 30 µM, CC1CCN(Cc2c(C(=O)N/N=C/c3ccccc3O)nnn2-c2nonc2N)CC1 > 30 µM, O=[N+]([O-])c1cc(/C=N/O)ccc1Oc1ccccc1Cl > 30 µM, Cc1ccc(C2C3=C(CC(C)(C)CC3=O)Nc3[nH]c(=S)[nH]c(=O)c32)cc1 (centres undefined) > 30 µM, CC1CCc2c(sc(Nc3nc4c(F)cccc4s3)c2C(N)=O)C1 (centres undefined) > 30 µM, CC(=O)Nc1nnc(CSCc2ccc(F)cc2)s1 > 30 µM, Cc1cc(N2CCC(C)CC2)nc(-c2ccccc2O)n1 > 30 µM, O=Cc1ccc(N2CCCC2)c([N+](=O)[O-])c1 > 30 µM, COC(=O)c1ccc(NC(=O)CCN2CCN(Cc3ccccc3)CC2)cc1 > 30 µM, O=C(CCc1ccccc1)Nc1ncc([N+](=O)[O-])s1 > 30 µM, CN(C)CC(=O)N1c2ccccc2Sc2ccc(Cl)cc21 > 30 µM, CCCC1=C(C(=O)OCC)C(c2sccc2C)n2ncnc2N1 (centres undefined) > 30 µM, COc1ccc(-n2c(=O)c3c4c(sc3n3c(=S)[nH]nc23)CCCC4)cc1 > 30 µM, O=S1(=O)CC2SC(=S)N(c3ccccc3)C2C1 (centres undefined) > 30 µM, CCCc1cc(=O)[nH]c(SCCOc2ccc(OCC)cc2)n1 > 30 µM, CN1CCN(CCCNC(=O)Nc2ccc([N+](=O)[O-])cc2)CC1 > 30 µM, Cc1ccc(C(=O)N/N=C\c2ccc(-c3ccc(Cl)c(Cl)c3)o2)cn1 > 30 µM, CCOc1ccccc1N1CCN(S(=O)(=O)c2cc(C)ccc2OC)CC1 > 30 µM, Cc1onc(-c2ccccc2)c1C(=O)n1cccn1 > 30 µM, O=C(Nc1ccccn1)C(=O)Nc1ccccn1 > 30 µM, O=C(O)/C=C/c1cn(-c2ccccc2)nc1-c1cccc([N+](=O)[O-])c1 > 30 µM, CC(=O)Nc1cccc(Nc2nc(-c3ccccc3)nc3ccccc23)c1 > 30 µM, COc1ccc(CNCCC(c2ccc(F)cc2)c2ccc(OC)cc2)cc1 (centres undefined) > 30 µM, COC(=O)c1c(N)c(C#N)c2n1CCCCC2 > 30 µM, Nc1ncnc2c1ncn2C1OC(COP(=O)(O)O)C(O)C1O (centres undefined) > 30 µM, CCOC(=O)c1c(C)[nH]c(C)c1C(=O)CN1C(=O)NC(CC(C)C)C1=O (centres undefined) > 30 µM, CSc1nc(NCC(C)C)c2c3c(sc2n1)CN(C)CC3 > 30 µM, CC1CCN(c2oc(-c3ccccc3Cl)nc2C#N)CC1 > 30 µM, COc1cc(/C=N/NC(=O)c2sc(N)c(C#N)c2C)ccc1O > 30 µM, CCn1c(/C=C/N(C(C)=O)c2ccccc2)[n+](CC)c2ccc(Cl)cc21 > 30 µM, COc1cc(C(=O)OCC(=O)NC(N)=O)cc(CN2C(=O)c3ccccc3C2=O)c1OC > 30 µM, CN1CCN(c2ccccc2NC(=O)c2ccc(Br)o2)CC1 > 30 µM, Cc1ccc(SCCc2ccc(C)nc2)cc1 > 30 µM, O=C(CN1C(=O)COc2ccccc21)Nc1ccccc1F > 30 µM, O=[N+]([O-])c1cc(/C=N/n2cnnc2)ccc1N1CCCC1 > 30 µM, CCNc1ccc(S(=O)(=O)N(C)C)cc1NCC(=O)Nc1ccc(Br)cc1F > 30 µM, O=C(N1CCN(c2ccccc2F)CC1)C12CC3CC(CC(C3)C1)C2 > 30 µM, CCCCc1cc(=O)oc2cc(C)cc(O)c12 > 30 µM, CCN(CC)C(=O)COC(=O)c1ccc(O)cc1 > 30 µM, Nc1nc(NCCN2CCOCC2)nc(NCc2ccccc2)c1[N+](=O)[O-] > 30 µM, CCn1c(SCC(=O)Nc2ccccc2)nnc1C1CCCCC1 > 30 µM, Cc1ccc(S(=O)(=O)N2CCN(CC(=O)N/N=C/c3ccco3)CC2)cc1 > 30 µM, O=C(c1cccs1)c1coc2ccc(O)c(CN(CCO)CCO)c12 > 30 µM, Nc1nnnn1/N=C/c1ccc(N2CCCCC2)c([N+](=O)[O-])c1 > 30 µM, NS(=O)(=O)c1ccc(Nc2nc(-c3ccc(O)cc3O)cs2)cc1 > 30 µM, COc1ccc(C(=O)c2coc3ccc(O)cc23)cc1 > 30 µM, O=C1NC(=Nc2ccccc2)S/C1=C\c1cccnc1 > 30 µM, COc1nc(NCCN2CCOCC2)nc(Nc2ccc([N+](=O)[O-])cc2)n1 > 30 µM, COc1ccccc1Nc1nc(NCCO)nc(N)c1[N+](=O)[O-] > 30 µM, CCc1n[nH]c(=S)n1/N=C/C(C)=C\c1ccccc1 > 30 µM, COc1ccc2c(c1)C(=O)C(=O)N2 > 30 µM, CNc1nc(N)c([N+](=O)[O-])c(Nc2cccc(Cl)c2)n1 > 30 µM, COc1ccc2nc3c(cc2c1)c(NC(=O)C1CCCO1)nn3CC(C)C (centres undefined) > 30 µM, CCOc1ccc2ncc(C(=O)c3ccc(OC)cc3)c(N3CCN(CC)CC3)c2c1 > 30 µM, CCN(CC)Cc1c(C(=O)N/N=C/c2cccs2)nnn1-c1nonc1N > 30 µM, Cc1cc(NC(=O)c2noc3c2CCc2ccccc2-3)n(-c2ccccc2)n1 > 30 µM, NC1=NC(=Nc2ccccc2)c2ccccc21 > 30 µM, O=C(COc1ccccc1[N+](=O)[O-])N/N=C/c1cccs1 > 30 µM, CC1CCCCC1NC(=O)CN(C)S(=O)(=O)c1cccc2cccnc12 (centres undefined) > 30 µM, CCN1CCN(Cc2ccc(NC(=O)c3ccc(C)c(/C=C/c4cnc(Nc5cc(N6CCNCC6)nc(C)n5)cn4)c3)cc2C(F)(F)F)CC1 > 30 µM, CCOC(=O)c1ccc(N=c2sc(C(=O)OC)cc(=O)n2Cc2ccco2)cc1 > 30 µM, COc1ccc2occ(C(=O)c3ccc(N=C(C)N(C)C)cc3)c2c1 > 30 µM, O=[N+]([O-])c1ccc(Cl)cc1NCCCN1CCOCC1 > 30 µM, O=C(OCCCOC(=O)c1ccccc1O)c1ccccc1O > 30 µM, CC(C)=CCc1c(O)ccc2c1OC(c1ccc(O)c(O)c1)CC2=O (centres undefined) > 30 µM, CC(=O)c1coc2ccc(OCC(=O)O)cc12 > 30 µM, COc1cc(/C=N\NC(=O)c2ccccc2F)ccc1Oc1ccc([N+](=O)[O-])cn1 > 30 µM, CNC(=O)c1ccccc1NC(=O)c1cccc(S(=O)(=O)N2CCC(C)CC2)c1 > 30 µM, COCCn1c(SCC(=O)NC(C)c2ccccc2)nc2ccccc21 (centres undefined) > 30 µM, Nc1nonc1-n1nnc(C(=O)N/N=C/c2cccc(F)c2)c1CN1CCCC1 > 30 µM, Cc1oc2c(CN(C)C)c(O)ccc2c(=O)c1-c1cscn1 > 30 µM, N#Cc1c(-c2ccccc2)nc(SCC(=O)NC2CCCCC2)[nH]c1=O > 30 µM, COc1cc(/C=N/n2c(C3CCCCC3)n[nH]c2=S)cc(Br)c1O > 30 µM
